Reference: patent US8349801B2, “Peptide ligands for G-protein coupled receptors” (priority 2006, dated 2013)
Part of at least one peptide drawing is inferred or uncertain, most often the ends. No end group written: not given here.

Test system: Isoproterenol induced rats
Experiment: Cardiac remodeling induced by Isoproterenol
Assay type: in vivo, Wistar rats
Conditions: 1 ug/hour/Kg osmotic minipump; partial data, 3 out of 6 animals of each group
Description: The effect of the peptides […] (SEQ ID NO:10), […]-dimer ([…]) (SEQ ID […]), P33_V (SEQ ID NO:7), P33-dimer (P33_D) (SEQ ID NO:6) on cardiac remodeling, was tested by determining their effect on heart hypertrophy and fibrosis (deposition of collagen I, III, and fibronectin) induced by Isoproterenol. Losartan (an antagonist of the known angiotensin II receptor, AT1, Kucharewicz et al., 2002; Hypertension, (40): 774-779) was used as positive control. The negative control group was treated with vehicle only. Additional control groups included rats not-treated with isoproterenol which were treated with the peptides, with Losartan or with the vehicle. The analysis included determination of the left ventricle mass and morphometry. […] Immunofluorescence-labeling and quantitative confocal microscopy was used to investigate the distribution and quantity of collagen types I, III and fibronectin present in the left ventricles. […] Optimal confocal settings (aperture, gain and laser power) were determined at the beginning of each imaging session and then held constant during the analysis of all the samples. […] For quantitative analysis of collagens I, III, and fibronectin, the ImageTool 2.0 image analysis program was used ([…].edu/[…]) to measure the fluorescence intensity in images randomly selected. […]

Sequence	heart hypertrophy induced by Isoproterenol, as indicated by deposition of fibronectin, Collagen I and Collagen III
SMVHRWSRAVLFPAAHRP [Peptide P33_V, SMVHRWSRAVLFPAAHRP]	inconsistent
FLGYSIYLNRKRRGDPAFKRRLRD [Peptide P61_S]	effective in reducing the heart hypertrophy
